Assay results reported in patent publication US11014896B2, “TRPA1 and TRPV4 inhibitors and methods of using the same for organ-specific inflammation and itch” (Duke University, priority 2014, dated 2021).
Some results were stated once for a whole list of compounds, not compound by compound.

Chains of the proteins cited; added tags and fusions are not shown.
UniProt O75762, whole entry: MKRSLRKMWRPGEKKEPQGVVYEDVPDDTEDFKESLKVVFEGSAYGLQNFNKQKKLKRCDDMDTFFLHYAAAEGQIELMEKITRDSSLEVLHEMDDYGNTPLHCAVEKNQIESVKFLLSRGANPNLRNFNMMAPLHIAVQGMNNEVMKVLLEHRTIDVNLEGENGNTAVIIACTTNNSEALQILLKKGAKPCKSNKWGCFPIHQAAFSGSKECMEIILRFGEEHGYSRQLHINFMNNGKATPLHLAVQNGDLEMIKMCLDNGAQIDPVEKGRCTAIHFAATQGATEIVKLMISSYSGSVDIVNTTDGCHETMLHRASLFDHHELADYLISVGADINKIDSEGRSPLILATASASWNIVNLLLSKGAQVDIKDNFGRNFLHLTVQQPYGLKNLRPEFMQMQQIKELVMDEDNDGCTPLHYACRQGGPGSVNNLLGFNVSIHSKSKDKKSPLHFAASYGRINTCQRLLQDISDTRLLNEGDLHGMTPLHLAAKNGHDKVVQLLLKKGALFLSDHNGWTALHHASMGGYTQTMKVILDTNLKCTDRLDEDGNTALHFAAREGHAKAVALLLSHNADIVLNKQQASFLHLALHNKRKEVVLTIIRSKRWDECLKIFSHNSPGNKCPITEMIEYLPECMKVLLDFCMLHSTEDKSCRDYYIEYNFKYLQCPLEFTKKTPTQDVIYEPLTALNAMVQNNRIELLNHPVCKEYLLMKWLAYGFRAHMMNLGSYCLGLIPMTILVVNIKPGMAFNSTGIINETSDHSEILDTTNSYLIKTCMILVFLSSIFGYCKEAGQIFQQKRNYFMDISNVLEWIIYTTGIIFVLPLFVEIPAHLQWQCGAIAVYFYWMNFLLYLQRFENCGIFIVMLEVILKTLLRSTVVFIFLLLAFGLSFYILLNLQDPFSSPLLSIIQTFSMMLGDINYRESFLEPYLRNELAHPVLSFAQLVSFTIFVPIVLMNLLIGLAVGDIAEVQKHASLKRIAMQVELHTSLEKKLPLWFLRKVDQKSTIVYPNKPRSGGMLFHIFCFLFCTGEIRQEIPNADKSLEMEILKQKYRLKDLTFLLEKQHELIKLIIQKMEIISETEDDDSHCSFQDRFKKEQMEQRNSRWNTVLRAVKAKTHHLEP

Target: T1, human TRPA1 (Homo sapiens, UniProt O75762)
T1 construct: expressed in transfected cells; host or cells: N2a cells, pcDNA3.1 plasmid, co-transfected with an eGFP plasmid
Experiment: Ca2+ transient in N2a cells transfected with human TRPA1
Format: cell-based
Conditions: 5 μM compound, pre-exposed 10 min
Protocol: Compounds were tested for their effect on TRPA1. N2a permanent cells were transfected with human TRPA1 cDNA, using a pcDNA3.1 expression plasmid. They were co-transfected with eGFP-expressing plasmid, or, for control, with eGFP plasmid only.

Compound | reduction of Ca2+ transient evoked by 60 μM AITC
CCN(CCc1ccc(Nc2nc(-c3ccccc3)cs2)cc1)Cc1ccccc1 [Compound 16-8/18hy] | > 80%
CN(CCc1ccc(Nc2nc(-c3ccccc3)cs2)cc1)Cc1ccccc1 [Compound 16-8] | > 80%
